According to article PMC3111535:
No constants are given. Whether binding was seen depends on the method and setting. Some results given as binding are weak or reduced against the parent protein; the word gives no strength. Tags and fused reporters may be left off the sequences shown.

How the values were obtained:
[1] = target: T1, ATMYC1 protein encoded by the native Col allele (Arabidopsis thaliana) (UniProt Q8W2F1); experiment: two-hybrid; ATMYC1 in the DNA binding vector pGBT9 RFB, TTG1 or GL1 in activation domain vectors; yeast strain Y190; growth on histidine dropout media and β-galactosidase activity (X-gal, colonies lifted on nitrocellulose)
T1 sequence: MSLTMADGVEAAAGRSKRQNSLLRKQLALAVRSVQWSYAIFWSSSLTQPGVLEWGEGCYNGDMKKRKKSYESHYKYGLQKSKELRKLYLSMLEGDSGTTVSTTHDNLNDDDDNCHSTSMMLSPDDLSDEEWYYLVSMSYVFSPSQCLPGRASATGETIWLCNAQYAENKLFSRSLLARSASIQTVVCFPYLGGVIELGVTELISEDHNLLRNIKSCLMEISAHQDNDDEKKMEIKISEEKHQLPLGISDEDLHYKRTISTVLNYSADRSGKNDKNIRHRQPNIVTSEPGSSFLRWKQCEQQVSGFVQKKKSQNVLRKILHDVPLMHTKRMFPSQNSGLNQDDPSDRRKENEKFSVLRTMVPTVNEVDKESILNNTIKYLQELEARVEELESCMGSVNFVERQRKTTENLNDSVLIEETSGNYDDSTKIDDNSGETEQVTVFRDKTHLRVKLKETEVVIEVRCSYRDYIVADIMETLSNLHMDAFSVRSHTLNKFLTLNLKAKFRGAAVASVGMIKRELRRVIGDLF

[2] = target: T2, ATMYC1 Col with P189A (Arabidopsis thaliana) (UniProt Q8W2F1); experiment: as above
T2 sequence: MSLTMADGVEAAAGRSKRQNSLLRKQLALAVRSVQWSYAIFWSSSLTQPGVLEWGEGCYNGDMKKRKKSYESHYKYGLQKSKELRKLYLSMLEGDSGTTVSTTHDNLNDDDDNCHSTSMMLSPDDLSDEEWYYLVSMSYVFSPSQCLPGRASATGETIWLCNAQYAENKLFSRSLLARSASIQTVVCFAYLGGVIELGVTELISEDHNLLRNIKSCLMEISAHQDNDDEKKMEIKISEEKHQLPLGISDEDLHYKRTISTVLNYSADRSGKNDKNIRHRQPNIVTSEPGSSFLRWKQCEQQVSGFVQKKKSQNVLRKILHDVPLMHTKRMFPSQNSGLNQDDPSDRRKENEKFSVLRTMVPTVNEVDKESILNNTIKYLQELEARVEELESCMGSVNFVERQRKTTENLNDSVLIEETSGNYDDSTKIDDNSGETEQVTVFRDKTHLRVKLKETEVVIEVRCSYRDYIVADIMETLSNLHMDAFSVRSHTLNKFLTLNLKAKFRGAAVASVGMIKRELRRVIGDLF

B1: TTG1 (protein, UniProt Q9XGN1 1-341)
chain: MDNSAPDSLSRSETAVTYDSPYPLYAMAFSSLRSSSGHRIAVGSFLEDYNNRIDILSFDSDSMTVKPLPNLSFEHPYPPTKLMFSPPSLRRPSSGDLLASSGDFLRLWEINEDSSTVEPISVLNNSKTSEFCAPLTSFDWNDVEPKRLGTCSIDTTCTIWDIEKSVVETQLIAHDKEVHDIAWGEARVFASVSADGSVRIFDLRDKEHSTIIYESPQPDTPLLRLAWNKQDLRYMATILMDSNKVVILDIRSPTMPVAELERHQASVNAIAWAPQSCKHICSGGDDTQALIWELPTVAGPNGIDPMSVYSAGSEINQLQWSSSQPDWIGIAFANKMQLLRV
binding [1]: binds | binding [2]: no binding

B2: GL1 (protein, UniProt P27900 1-228)
chain: MRIRRRDEKENQEYKKGLWTVEEDNILMDYVLNHGTGQWNRIVRKTGLKRCGKSCRLRWMNYLSPNVNKGNFTEQEEDLIIRLHKLLGNRWSLIAKRVPGRTDNQVKNYWNTHLSKKLVGDYSSAVKTTGEDDDSPPSLFITAATPSSCHHQQENIYENIAKSFNGVVSASYEDKPKQELAQKDVLMATTNDPSHYYGNNALWVHDDDFELSSLVMMNFASGDVEYCL
binding [1]: binds | binding [2]: no binding
